Source: PMC9939733 (The Journal of Biological Chemistry, 2023)
Residue numbers refer to the chain shown, from its start.

The chains behind the UniProt entries cited, without tags or fusion partners.
UniProt O75874, whole entry R132H: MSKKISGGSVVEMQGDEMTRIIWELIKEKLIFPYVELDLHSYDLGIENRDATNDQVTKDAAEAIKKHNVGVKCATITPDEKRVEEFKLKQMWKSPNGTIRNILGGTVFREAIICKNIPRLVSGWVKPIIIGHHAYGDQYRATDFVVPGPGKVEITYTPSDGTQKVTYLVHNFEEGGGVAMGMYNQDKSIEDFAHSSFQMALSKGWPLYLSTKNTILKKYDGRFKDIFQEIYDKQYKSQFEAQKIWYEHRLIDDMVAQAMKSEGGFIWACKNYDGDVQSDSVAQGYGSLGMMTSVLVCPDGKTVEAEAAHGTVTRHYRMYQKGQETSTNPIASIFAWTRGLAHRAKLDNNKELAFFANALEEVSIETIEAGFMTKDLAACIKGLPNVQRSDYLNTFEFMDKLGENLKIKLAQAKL

What was measured:
Type in all cases: biochemical
R172K IDH2 [1] = biological target: T1, R172K IDH2 (Homo sapiens, UniProt P48735, R172K); assay: Absorbance assay (NADPH consumption), substrate turnover in the absence of 2OG; conditions: no 2OG; 1.0 mM test compound, 0.03 μM R172K IDH2, 50 μM NADPH; 2OG = 100
T1 construct: made in house; host or cells: Sf21 insect cells (cell pellets prepared at Evotec)
T1 sequence (P48735 40-452 R172K): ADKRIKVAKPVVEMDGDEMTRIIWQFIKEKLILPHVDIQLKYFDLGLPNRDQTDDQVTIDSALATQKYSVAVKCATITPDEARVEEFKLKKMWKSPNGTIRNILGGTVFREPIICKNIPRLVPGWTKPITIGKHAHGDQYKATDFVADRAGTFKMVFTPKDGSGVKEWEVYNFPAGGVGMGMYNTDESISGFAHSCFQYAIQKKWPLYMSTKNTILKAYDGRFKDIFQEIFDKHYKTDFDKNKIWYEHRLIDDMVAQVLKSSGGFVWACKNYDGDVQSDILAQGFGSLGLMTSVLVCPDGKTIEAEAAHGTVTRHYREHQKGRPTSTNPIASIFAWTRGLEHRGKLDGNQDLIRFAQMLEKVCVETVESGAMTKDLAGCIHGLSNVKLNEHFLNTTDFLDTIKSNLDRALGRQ
Procedure: (§1) Compounds were dispensed using a CyBio SDW-CW CyBi-Well Simultaneous Pipettor and assay started using a ThermoFisher Multidrop Combi reagent dispenser.
(§2) Reactions were performed as technical quadruplicates.

R172K IDH2 [2] = biological target: T1, R172K IDH2; assay: Absorbance assay, variant activity in the presence of equimolar 2OG (inhibition screen); conditions: 1.0 mM 2OG and 1.0 mM test compound, 0.03 μM R172K IDH2, 50 μM NADPH
Procedure: as §1, §2

WT IDH2 = biological target: T2, WT IDH2 (Homo sapiens, UniProt P48735); assay: Absorbance assay, WT activity in the presence of equimolar DL-isocitrate (inhibition); conditions: […] isocitrate and […] test compound, 75 μM NADP+, 2.0 nM WT IDH2
T2 construct: made in house; host or cells: Sf21 insect cells (cell pellets prepared at Evotec)
T2 sequence (P48735 40-452): T1 sequence (P48735 40-452 R172K) with K133R
Procedure: as §1, §2

R132H IDH1 [3] = biological target: T3, R132H IDH1 (Homo sapiens, UniProt O75874, R132H); assay: Absorbance assay (NADPH consumption), substrate turnover in the absence of 2OG; design: made in house; host or cells: Escherichia coli BL21(DE3) pLyS; conditions: no 2OG; […] test compound, 0.03 μM R132H IDH1, 50 μM NADPH; 2OG = 100
Procedure: as §1, §2

R132H IDH1 [4] = biological target: T3, R132H IDH1; assay: Absorbance assay, variant activity in the presence of equimolar 2OG (inhibition screen); design: made in house; host or cells: Escherichia coli BL21(DE3) pLyS; conditions: […] 2OG and […] test compound, 0.03 μM R132H IDH1, 50 μM NADPH
Procedure: as §1, §2

- activity [%] (%-substrate conversion after 20 min incubation) (R172K IDH2 [1]): < 10%
- activity [%] (%-substrate conversion after 20 min incubation) (R172K IDH2 [2]): 97 ± 6%
- activity [%] (%-substrate conversion after 20 min incubation) (WT IDH2): 96 ± 5%
- activity [%] (%-substrate conversion after 20 min incubation) (R132H IDH1 [3]): < 10%
- activity [%] (%-substrate conversion after 20 min incubation) (R132H IDH1 [4]): 76 ± 1%
Structure (SMILES): O=C(O)C(=O)Cc1ccc(O)cc1 [hydroxyphenylpyruvic acid]
